Literature values, collected in patent US20160143884A1, “USE OF TETRAHYDROINDAZOLYLBENZAMIDE AND TETRAHYDROINDOLYLBENZAMIDE DERIVATIVES FOR THE TREATMENT OF HUMAN IMMUNODEFICIENCY VIRUS (HIV) AND ACQUIRED IMMUNE DEFICIENCY SYNDROME (AIDS)” (Esanex, Inc., priority 2014, published 2016).
At least one compound was matched to its structure with a doubt left.

Test system: integration
Conditions: Vozzolo et al., J. Biol. Chem. 2010; cited from earlier work

COC1=C2C[C@@H](C)C[C@H](OC)[C@H](O)[C@@H](C)/C=C(\C)[C@H](OC(N)=O)[C@@H](OC)/C=C\C=C(/C)C(=O)NC(=CC1=O)C2=O [geldanamycin (GA), geldanamycin]
Effect on integration: no effect
